Among the data in paper PMC5520684 are binding values, retold here.

Results are given in words; binding and its absence hold for the method and conditions named. Binding seen in cells or lysates may run through a third protein. Some entries that bind do so weakly or less than the wild type. Where a sequence is shown, tags or fusion partners need not be part of it.

The target of one assay is T1, Flag-tagged praja2 (UniProt O43164).
T1 sequence: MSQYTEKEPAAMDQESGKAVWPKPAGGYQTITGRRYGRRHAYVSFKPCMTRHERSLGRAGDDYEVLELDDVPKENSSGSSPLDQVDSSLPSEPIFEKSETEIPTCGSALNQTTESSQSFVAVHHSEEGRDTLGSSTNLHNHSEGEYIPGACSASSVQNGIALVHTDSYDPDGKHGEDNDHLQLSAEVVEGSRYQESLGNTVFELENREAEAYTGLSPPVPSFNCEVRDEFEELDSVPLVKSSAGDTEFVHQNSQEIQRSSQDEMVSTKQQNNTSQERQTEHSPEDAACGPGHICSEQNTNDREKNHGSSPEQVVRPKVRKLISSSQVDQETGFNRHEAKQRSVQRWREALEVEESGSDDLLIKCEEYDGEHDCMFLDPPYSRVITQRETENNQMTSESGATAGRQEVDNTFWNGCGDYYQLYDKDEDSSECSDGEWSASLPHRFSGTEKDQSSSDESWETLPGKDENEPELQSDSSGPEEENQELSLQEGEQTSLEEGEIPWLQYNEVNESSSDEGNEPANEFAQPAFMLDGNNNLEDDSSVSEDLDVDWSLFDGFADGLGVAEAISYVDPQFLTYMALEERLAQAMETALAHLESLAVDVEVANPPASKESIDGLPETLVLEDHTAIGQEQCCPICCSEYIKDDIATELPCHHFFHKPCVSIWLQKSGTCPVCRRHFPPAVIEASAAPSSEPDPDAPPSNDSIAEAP
The assay can be described thus: co-IP; HEK293 cells, transfected, MG132 (20 uM) for 6 h; lysates immunoprecipitated with anti-praja2 or anti-His antibody or normal IgG overnight at 4 °C, protein G-Agarose; immunoblotting.

Assay [1] deals with T2, GST-praja2 fusion protein (UniProt O43164).
T2 sequence: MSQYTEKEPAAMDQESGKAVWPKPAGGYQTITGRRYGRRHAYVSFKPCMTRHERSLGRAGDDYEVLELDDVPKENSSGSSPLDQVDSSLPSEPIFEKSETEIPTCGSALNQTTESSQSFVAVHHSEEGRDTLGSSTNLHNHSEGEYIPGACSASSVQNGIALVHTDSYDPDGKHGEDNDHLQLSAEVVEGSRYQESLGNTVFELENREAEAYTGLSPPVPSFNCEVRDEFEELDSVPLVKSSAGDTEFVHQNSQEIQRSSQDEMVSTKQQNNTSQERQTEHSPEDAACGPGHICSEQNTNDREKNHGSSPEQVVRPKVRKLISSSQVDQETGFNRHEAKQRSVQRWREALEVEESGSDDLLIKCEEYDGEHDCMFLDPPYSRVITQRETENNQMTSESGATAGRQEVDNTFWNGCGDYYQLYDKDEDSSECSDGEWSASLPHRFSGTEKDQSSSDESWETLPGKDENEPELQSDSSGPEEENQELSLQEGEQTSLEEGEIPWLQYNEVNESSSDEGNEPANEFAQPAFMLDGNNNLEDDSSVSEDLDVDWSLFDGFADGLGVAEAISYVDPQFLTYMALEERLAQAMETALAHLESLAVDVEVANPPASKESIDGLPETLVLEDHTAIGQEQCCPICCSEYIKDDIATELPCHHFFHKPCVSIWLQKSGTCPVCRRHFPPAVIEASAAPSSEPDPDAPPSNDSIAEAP
The assay can be described thus: pull-down; GST-praja2 or GST immobilised on glutathione Sepharose 4B beads, incubated overnight at 4 °C with HEK293-MFHAS1 lysate; binding buffer 20 mM Na3PO4, 0.5 M NaCl, 30 mM imidazole pH 7.4; blots with anti-GST and anti-HA; only the target purified.

B1: His-tagged MFHAS1 (protein, UniProt Q9Y4C4 1-1052)
chain: MAGMDSGNLKTARLWRDAALRARKLRSNLRQLTLTAAGACPGAGADALESPASPQLVLPANLGDIEALNLGNNGLEEVPEGLGSALGSLRVLVLRRNRFARLPPAVAELGHHLTELDVSHNRLTALGAEVVSALRELRKLNLSHNQLPALPAQLGALAHLEELDVSFNRLAHLPDSLSCLSRLRTLDVDHNQLTAFPRQLLQLVALEELDVSSNRLRGLPEDISALRALKILWLSGAELGTLPAGFCELASLESLMLDNNGLQALPAQFSCLQRLKMLNLSSNLFEEFPAALLPLAGLEELYLSRNQLTSVPSLISGLGRLLTLWLDNNRIRYLPDSIVELTGLEELVLQGNQIAVLPDHFGQLSRVGLWKIKDNPLIQPPYEVCMKGIPYIAAYQKELAHSQPAVQPRLKLLLMGHKAAGKTLLRHCLTEERVEGCPGGGDKEKCYPPSPPPVSKGIEVTSWTADASRGLRFIVYDLAGDESYEVIQPFFLSPGALYVLVVNLATYEPRHFPTTVGSFLHRVGARVPHAVVCIVGTHADLCGERELEEKCLDIHRQIALQEKHDAEGLSRLAKVVDEALARDFELRSASPHAAYYGVSDKNLRRRKAHFQYLLNHRLQILSPVLPVSCRDPRHLRRLRDKLLSVAEHREIFPNLHRVLPRSWQVLEELHFQPPQAQRLWLSWWDSARLGLQAGLTEDRLQSALSYLHESGKLLYFEDSPALKEHVFHNLTRLIDILNVFFQRDPSLLLHKLLLGTSGEGKAEGESSPPMARSTPSQELLRATQLHQYVEGFLLHGLLPAHVIRLLLKPHVQAQQDLQLLLELLEKMGLCYCLNKPKGKPLNGSTAWYKFPCYVQNEVPHAEAWINGTNLAGQSFVAEQLQIEYSFPFTFPLGLFARYSVQINSHVVHRSDGKFQIFAYRGKVPVVVSYRPARGVLQPDTLSIASHASLPNIWTAWQAITPLVEELNVLLQEWPGLHYTVHILCSKCLKRGSPNPHAFPGELLSQPRPEGVAEIICPKNGSERVNVALVYPPTPTVISPCSKKNVGEKHRNQ
Take B1: the binding entry with Flag-tagged praja2 is “binds”.

B2: HA-tagged MFHAS1 (malignant fibrous histiocytoma amplified sequence 1) (protein, UniProt Q9Y4C4 1-1052)
chain: MAGMDSGNLKTARLWRDAALRARKLRSNLRQLTLTAAGACPGAGADALESPASPQLVLPANLGDIEALNLGNNGLEEVPEGLGSALGSLRVLVLRRNRFARLPPAVAELGHHLTELDVSHNRLTALGAEVVSALRELRKLNLSHNQLPALPAQLGALAHLEELDVSFNRLAHLPDSLSCLSRLRTLDVDHNQLTAFPRQLLQLVALEELDVSSNRLRGLPEDISALRALKILWLSGAELGTLPAGFCELASLESLMLDNNGLQALPAQFSCLQRLKMLNLSSNLFEEFPAALLPLAGLEELYLSRNQLTSVPSLISGLGRLLTLWLDNNRIRYLPDSIVELTGLEELVLQGNQIAVLPDHFGQLSRVGLWKIKDNPLIQPPYEVCMKGIPYIAAYQKELAHSQPAVQPRLKLLLMGHKAAGKTLLRHCLTEERVEGCPGGGDKEKCYPPSPPPVSKGIEVTSWTADASRGLRFIVYDLAGDESYEVIQPFFLSPGALYVLVVNLATYEPRHFPTTVGSFLHRVGARVPHAVVCIVGTHADLCGERELEEKCLDIHRQIALQEKHDAEGLSRLAKVVDEALARDFELRSASPHAAYYGVSDKNLRRRKAHFQYLLNHRLQILSPVLPVSCRDPRHLRRLRDKLLSVAEHREIFPNLHRVLPRSWQVLEELHFQPPQAQRLWLSWWDSARLGLQAGLTEDRLQSALSYLHESGKLLYFEDSPALKEHVFHNLTRLIDILNVFFQRDPSLLLHKLLLGTSGEGKAEGESSPPMARSTPSQELLRATQLHQYVEGFLLHGLLPAHVIRLLLKPHVQAQQDLQLLLELLEKMGLCYCLNKPKGKPLNGSTAWYKFPCYVQNEVPHAEAWINGTNLAGQSFVAEQLQIEYSFPFTFPLGLFARYSVQINSHVVHRSDGKFQIFAYRGKVPVVVSYRPARGVLQPDTLSIASHASLPNIWTAWQAITPLVEELNVLLQEWPGLHYTVHILCSKCLKRGSPNPHAFPGELLSQPRPEGVAEIICPKNGSERVNVALVYPPTPTVISPCSKKNVGEKHRNQ
Turning to B2, in assay [1], the binding result is “binds”.
